These are yes or no findings as the source states them, for the method shown. For some assays here: Binding seen in cells or lysates may run through a third protein. Some entries that bind do so weakly or less than the wild type. For some assays here: Sequences can lack the tags named with a protein.
Key:
[1] = biological target: T1, GST fusion of AURKA 283–333 domain (human) (UniProt O14965); test: pull-down; 5 μg GST fusion protein of a truncated form incubated 1 h at 4 °C in RIPA lysate of 293T cells overexpressing HA-tagged AURKA or hnRNP K; glutathione–agarose beads; only the target purified
T1 sequence: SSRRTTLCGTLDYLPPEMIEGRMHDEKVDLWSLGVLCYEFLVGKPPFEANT

[2] = biological target: T2, Flag-AURKA–enhanced green fluorescent protein (EGFP) (human) (UniProt O14965); test: co-IP; 293T co-transfected with WT or NLS deletion mutant hnRNP K and Flag-AURKA–EGFP for 24 h; nuclear protein fraction
T2 sequence: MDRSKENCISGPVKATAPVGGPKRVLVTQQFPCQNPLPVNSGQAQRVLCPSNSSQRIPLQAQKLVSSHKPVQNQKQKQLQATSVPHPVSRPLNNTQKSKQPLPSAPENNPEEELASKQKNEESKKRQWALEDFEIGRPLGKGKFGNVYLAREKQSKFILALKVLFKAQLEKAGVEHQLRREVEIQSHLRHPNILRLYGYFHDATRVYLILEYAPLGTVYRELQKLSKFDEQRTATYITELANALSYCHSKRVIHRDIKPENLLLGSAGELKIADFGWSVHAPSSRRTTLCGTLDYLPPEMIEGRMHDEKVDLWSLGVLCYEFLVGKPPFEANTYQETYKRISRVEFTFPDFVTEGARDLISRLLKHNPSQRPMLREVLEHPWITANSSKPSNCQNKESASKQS

[3] = biological target: T2, Flag-AURKA–enhanced green fluorescent protein (EGFP) (human); test: co-IP; 293T co-transfected with WT or NLS deletion mutant hnRNP K and Flag-AURKA–EGFP for 24 h; cytoplasmic protein fraction
[4] = biological target: T2, Flag-AURKA–enhanced green fluorescent protein (EGFP) (human); test: co-IP; 293T co-transfected with WT or NLS deletion mutant hnRNP K and Flag-AURKA–EGFP for 24 h; whole lysates
[5] = biological target: T3, Aurora kinase A (AURKA), endogenous (human (endogenous in MDA-MB-231 and breast cancer tissue)) (UniProt O14965); test: co-IP; endogenous proteins; RIPA lysate, 1 μg antibody and 2–5 mg lysate
T3 sequence: T2 sequence

[6] = biological target: T3, Aurora kinase A (AURKA), endogenous (human (endogenous in MDA-MB-231 and breast cancer tissue)); test: co-IP; endogenous proteins; lysate of breast cancer tissue in which AURKA is predominantly expressed in the cytoplasm (Fig. 3k lane 4)
[7] = biological target: T3, Aurora kinase A (AURKA), endogenous (human (endogenous in MDA-MB-231 and breast cancer tissue)); test: co-IP; endogenous proteins; nuclear and cytoplasmic protein fractions of MDA-MB-231 cells
[8] = biological target: T3, Aurora kinase A (AURKA), endogenous (human (endogenous in MDA-MB-231 and breast cancer tissue)); test: re-ChIP; formaldehyde-fixed chromatin of MDA-MB-231 cells, sequential ChIP with antibodies against AURKA and hnRNP K, real-time PCR of the MYC promoter
[9] = biological target: T3, Aurora kinase A (AURKA), endogenous (human (endogenous in MDA-MB-231 and breast cancer tissue)); test: co-IP; endogenous proteins; lysates of breast cancer tissue in which AURKA is predominantly expressed in the nucleus (Fig. 3k lanes 2 and 6)
[10] = biological target: T4, AURKA, ectopically expressed (co-IP of Supplementary Fig. 3h,i,k) (human) (UniProt O14965); test: co-IP; ectopically expressed proteins; RIPA lysate, 1 μg antibody and 200–500 μg lysate
T4 sequence: T2 sequence

[11] = biological target: T5, AURKA-EYFP (human) (UniProt O14965); test: FRET or BRET; sensitized emission FRET in 293T cells co-transfected with hnRNP K-ECFP and AURKA-EYFP, 48 h, room temperature; ROIs in cytoplasm and nucleus
T5 sequence: T2 sequence

In the case of “HA-tagged hnRNP K (from UniProt P61978 1-463)”, the binding [1] was “binds”.

In the case of “NLS deletion mutant hnRNP K (from UniProt P61978 1-463)”, the binding [2] was “binds”, the binding [3] was “binds weakly” and the binding [4] was “binds”.

In the case of “WT hnRNP K (co-transfected with Flag-AURKA–EGFP) (from UniProt P61978 1-463)”, the binding [2] was “binds”, the binding [3] was “binds weakly” and the binding [4] was “binds”.

“heterogeneous nuclear ribonucleoprotein K (hnRNP K), endogenous (from UniProt P61978 1-463)” was tested, and the binding [5] was “binds”, the binding [6] was “binds weakly” and the binding [7] was “binds”. The binding [8] was “binds” and the binding [9] was “binds”.

In the case of “hnRNP K, ectopically expressed (co-IP of Supplementary Fig. 3h,i,k) (from UniProt P61978 1-463)”, the binding [10] was “binds”.

In the case of “hnRNP K-ECFP (from UniProt P61978 1-463)”, the binding [11] was “binds”.
